According to the supplement of paper PMC10331698:
± gives the standard deviation of the averaged measurements. Most entries show no effect beyond the scatter of the controls.

Tests used:
Assay in all cases: level (log10 ratio to DMSO vehicle control); higher = higher biomarker level / cell amount than vehicle control
Perfluorooctanamide = compound: NC(=O)C(F)(F)C(F)(F)C(F)(F)C(F)(F)C(F)(F)C(F)(F)C(F)(F)F [Perfluorooctanamide]; settings: 2200 nM; in DMSO
Protocol: (§1)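 BioMAP Diversity Plus panel of 12 human primary cell co-culture systems (3C, 4H, LPS, SAg, BT, BF4T, BE3C, CASM3C, HDF3CGF, KF3CT, MyoF, Mphg). Compounds were added 1 h before stimulation and left for 24 h (MyoF 48 h; BT 72 h for soluble read-outs or 6 d for IgG). Biomarkers were read by ELISA, cytotoxicity by SRB, PBMC viability and proliferation by Alamar Blue. Each well value was divided by the mean of 8 DMSO control wells on the same plate and log10 transformed; duplicate blinded samples were tested at 4 concentrations.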

[1] = compound: O=C(O)C(F)(F)OC(F)(F)C(F)(F)OC(F)(F)C(=O)O [Perfluoro-3,6-dioxaoctane-1,8-dioic acid]; settings: 2200 nM; in DMSO
Protocol: as §1

Perfluoroundecanoic acid = compound: O=C(O)C(F)(F)C(F)(F)C(F)(F)C(F)(F)C(F)(F)C(F)(F)C(F)(F)C(F)(F)C(F)(F)C(F)(F)F [Perfluoroundecanoic acid]; settings: in DMSO
Protocol: as §1

[2] = compound: O=P(O)(O)CCC(F)(F)C(F)(F)C(F)(F)C(F)(F)C(F)(F)C(F)(F)C(F)(F)C(F)(F)F [((Perfluorooctyl)ethyl)phosphonic acid]; settings: 2200 nM; in DMSO
Protocol: as §1

[3] = compound: OCC(F)(F)C(F)(F)C(F)(F)C(F)(F)C(F)(F)C(F)(F)C(F)(F)C(F)(F)C(F)(F)C(F)(F)C(F)(F)F [11:1 Fluorotelomer alcohol]; settings: in DMSO
Protocol: as §1

Perfluorobutanoic acid = compound: O=C(O)C(F)(F)C(F)(F)C(F)(F)F [Perfluorobutanoic acid]; settings: 2200 nM; in DMSO
Protocol: as §1

[4] = compound: C=C(C)C(=O)OCC(F)(F)C(F)(F)C(F)(F)F [2,2,3,3,4,4,4-Heptafluorobutyl methacrylate]; settings: 2200 nM; in DMSO
Protocol: as §1

[5] = compound: FC(F)(F)C(F)(F)C(F)(F)C(F)(F)C(F)(F)C(F)(F)C(F)(F)I [1-Iodopentadecafluoroheptane]; settings: in DMSO
Protocol: as §1

[6] = compound: C=CC(=O)OCC(F)(F)C(F)(F)C(F)(F)C(F)(F)COC(=O)C=C [1H,1H,6H,6H-Perfluorohexane-1,6-diol diacrylate]; settings: 2200 nM; in DMSO
Protocol: as §1

[7] = compound: O=C(O)C(F)(F)C(F)(F)OC(F)(F)F [Perfluoro-3-methoxypropanoic acid]; settings: 2200 nM; in DMSO
Protocol: as §1

[8] = compound: OCCC(F)(F)C(F)(F)C(F)(F)C(F)(F)C(F)(F)C(F)(F)C(F)(F)C(F)(F)F [8:2 Fluorotelomer alcohol]; settings: 2200 nM; in DMSO
Protocol: as §1

[9] = compound: O=S(=O)(Cl)C(F)(F)C(F)(F)C(F)(F)C(F)(F)C(F)(F)C(F)(F)C(F)(F)C(F)(F)F [Perfluoro-1-octanesulfonyl chloride]; settings: 2200 nM; in DMSO
Protocol: as §1

[10] = compound: O=C(O)C(F)(F)C(F)(F)C(F)(F)C(F)(F)C(F)(F)C(F)(F)C(F)(F)C(F)F [9-H-Perfluorononanoic acid]; settings: 2200 nM; in DMSO
Protocol: as §1

Perfluoropropanoic acid = compound: O=C(O)C(F)(F)C(F)(F)F [Perfluoropropanoic acid]; settings: 2200 nM; in DMSO
Protocol: as §1

[11] = compound: O=C(O)C=CC(F)(C(F)(F)F)C(F)(F)F [3-(Perfluoroisopropyl)-2-propenoic acid]; settings: in DMSO
Protocol: as §1

[12] = compound: FC(F)(F)C(F)(F)C(F)(F)C(F)(F)C(F)(F)C(F)(F)C(F)(F)CCI [1-Iodo-1H,1H,2H,2H-perfluorononane]; settings: in DMSO
Protocol: as §1

[13] = compound: O=C(O)C(F)(F)OC(F)(F)C(F)(F)OC(F)(F)C(F)(F)C(F)(F)C(F)(F)F [Perfluoro-3,6-dioxadecanoic acid]; settings: 2200 nM; in DMSO
Protocol: as §1

[14] = compound: FC(F)C(F)(F)COCC1CO1 [((2,2,3,3-Tetrafluoropropoxy)methyl)oxirane]; settings: 2200 nM; in DMSO
Protocol: as §1

Row | Test System | level (log10) (Perfluorooctanamide) | level (log10) [1] | level (log10) (Perfluoroundecanoic acid; 740 nM) | level (log10) (Perfluoroundecanoic acid; 2200 nM) | level (log10) [2] | level (log10) ([3]; 370 nM) | level (log10) ([3]; 1100 nM) | level (log10) ([3]; 3300 nM) | level (log10) ([3]; 10000 nM) | level (log10) (Perfluorobutanoic acid) | level (log10) [4] | level (log10) ([5]; 740 nM) | level (log10) ([5]; 2200 nM) | level (log10) ([5]; 6700 nM) | level (log10) ([5]; 20000 nM) | level (log10) [6] | level (log10) [7] | level (log10) [8] | level (log10) [9] | level (log10) [10] | level (log10) (Perfluoropropanoic acid) | level (log10) ([11]; 2200 nM) | level (log10) ([11]; 6700 nM) | level (log10) ([11]; 20000 nM) | level (log10) ([11]; 60000 nM) | level (log10) ([12]; 740 nM) | level (log10) ([12]; 2200 nM) | level (log10) ([12]; 6700 nM) | level (log10) ([12]; 20000 nM) | level (log10) [13] | level (log10) [14]
1 | HDF3CGF:TIMP-1 | 0.0005 ± 0.011 | 0.01 ± 0.064 | 0.0025 ± 0.0064 | 0.019 ± 0.0099 | 0.0235 ± 0.0078 | -0.004 ± 0.0028 | -0.029 ± 0.024 | -0.07 ± 0.0085 | -0.033 ± 0.016 | 0.0055 ± 0.005 | -0.038 ± 0.013 | 0.004 ± 0.025 | -0.005 ± 0.031 | -0.0185 ± 0.0021 | -0.024 ± 0.0042 | -0.0355 ± 0.039 | 0.008 ± 0.09 | 0.024 ± 0.037 | 0.011 ± 0.014 | -0.012 ± 0.038 | -0.006 ± 0.025 | 0.0115 ± 0.039 | -0.006 ± 0.014 | 0.0105 ± 0.015 | 0.007 ± 0.0057 | 0.004 ± 0.031 | 0.001 ± 0.0057 | -0.0035 ± 0.0035 | 0.047 ± 0.0085 | 0.0025 ± 0.03 | 0.006 ± 0.027
2 | CASM3C:Serum Amyloid A | -0.0075 ± 0.023 | 0.0145 ± 0.086 | 0.0065 ± 0.05 | 0.019 ± 0.0085 | 0.0285 ± 0.066 | -0.018 ± 0.034 | -0.0025 ± 0.044 | -0.0045 ± 0.0078 | 0.0045 ± 0.016 | -0.014 ± 0.0071 | 0.0105 ± 0.0078 | 0.019 ± 0.017 | -0.024 | -0.035 | 0.008 ± 0.024 | -0.0375 ± 0.018 | 0.03 ± 0.098 | -0.0025 ± 0.032 | -0.0105 ± 0.03 | 0.007 ± 0.069 | -0.037 ± 0.068 | 0.0315 ± 0.06 | 0.0085 ± 0.005 | -0.023 ± 0.017 | 0.026 ± 0.045 | 0.016 ± 0.034 | -0.0215 ± 0.011 | -0.007 ± 0.031 | 0.0135 ± 0.076 | 0.0115 ± 0.0021 | -0.01 ± 0.011
3 | SAg:PBMC Cytotoxicity | 0.0115 ± 0.011 | 0.0105 ± 0.044 | 0.006 ± 0.013 | 0.006 ± 0.013 | -0.0205 ± 0.059 | -0.102 ± 0.023 | -0.233 ± 0.016 | -0.266 ± 0.02 | -0.268 ± 0.076 | -0.0075 ± 0.0078 | -0.013 ± 0.059 | 0.0065 ± 0.016 | 0.0155 ± 0.022 | -0.0165 ± 0.028 | 0.0265 ± 0.026 | -0.03 ± 0.0099 | 0.018 ± 0.057 | -0.008 ± 0.027 | -0.003 ± 0.038 | 0.015 ± 0.082 | 0.017 ± 0.047 | 0.003 ± 0.055 | -0.0035 ± 0.0078 | 0.0015 ± 0.0035 | -0.005 ± 0.017 | 0.029 ± 0.0014 | -0.02 ± 0.0042 | -0.005 ± 0.045 | 0.0205 ± 0.035 | 0.005 ± 0.016 | 0.003 ± 0.014
4 | BE3C:MMP-1 | 0.001 ± 0.0014 | -0.0175 ± 0.03 | -0.0085 ± 0.013 | -0.011 ± 0.013 | 0.0635 ± 0.054 | -0.0065 ± 0.043 | -0.0275 ± 0.018 | -0.0685 ± 0.015 | -0.077 | 0.0315 ± 0.044 | 0.0145 ± 0.025 | -0.008 ± 0.0071 | -0.0115 ± 0.012 | -0.0205 ± 0.0078 | -0.011 | -0.0115 ± 0.022 | -0.0125 ± 0.026 | 0.0175 ± 0.074 | 0.0385 ± 0.077 | 0.02 ± 0.034 | 0.013 ± 0.028 | 0.034 ± 0.098 | 0.0495 ± 0.06 | 0.034 ± 0.061 | 0.085 ± 0.0028 | 0.025 ± 0.024 | -0.0115 ± 0.0078 | 0.011 ± 0.0071 | 0.059 ± 0.031 | 0.0205 ± 0.023 | -0.0215 ± 0.013
